The source of these data is publication doi:10.1101/2021.04.23.441157.

For this experiment, the target named is T1, Cdc12 with primary sequence derived from S. cerevisiae (S. cerevisiae) (UniProt P32468).
T1 sequence: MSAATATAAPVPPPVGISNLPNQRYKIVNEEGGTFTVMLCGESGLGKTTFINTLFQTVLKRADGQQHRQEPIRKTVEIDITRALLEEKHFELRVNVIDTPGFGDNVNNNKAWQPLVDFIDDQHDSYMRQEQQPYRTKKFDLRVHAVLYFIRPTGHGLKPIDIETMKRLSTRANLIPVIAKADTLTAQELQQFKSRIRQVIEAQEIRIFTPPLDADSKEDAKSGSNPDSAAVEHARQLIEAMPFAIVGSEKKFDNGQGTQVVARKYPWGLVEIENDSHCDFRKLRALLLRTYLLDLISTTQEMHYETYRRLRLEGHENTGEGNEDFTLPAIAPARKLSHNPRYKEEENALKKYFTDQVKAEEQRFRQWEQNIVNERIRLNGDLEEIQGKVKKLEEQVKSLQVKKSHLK
Kind of experiment: co-purification on cobalt resin + negative-stain electron microscopy.

These are yes or no findings as the source states them, for the method shown. Binding seen in cells or lysates may run through a third protein. Binding calls can cover weak binding; strength is not graded here.

In the case of Ashbya gossypii Cdc11b, the binding entry is recorded as “binds”.

With Ashbya gossypii Cdc11a, the binding entry is recorded as “binds”.
